In the assay the test system is nematocysts of jellyfish or sea anemone. The settings on record: 0.2% in glycerol.

As for `CN(C)CCOC(c1ccccc1)c1ccccc1.Cl` [diphenhydramine, diphenhydramine hydrochloride], the “inhibition of nematocyst discharge into human skin samples” value is given as “effective at inhibiting nematocyst discharge”.
